Some of the results follow.
Tests used:
Test in all cases: log2 fold change, soluble protein after heating vs DMSO (PISA); higher = thermal stabilisation; K562 cells, 10 uM, 30 min; active = over 0.2 and 3.5 SD of the protein, either way, in both replicates (recomputed)
[1] = compound: Cc1ccc(NC(=O)c2ccc(CN3CC[C@H](N(C)C)C3)c(C(F)(F)F)c2)cc1Nc1nccc(-c2cncnc2)n1 [bafetinib]
How it was run: (§1)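 Thermal stability values are relative to control samples and come from duplicates. They are expressed as log2 fold changes. For measurement, K562 cells (2×10^6 cells/mL) received 10 μM compound for 30 min, and aliquots were heated for 3 min over 48°C-58°C, pooled, and extracted at 4°C in PBS with 0.5% NP-40. Soluble protein, the supernatant after 21,000xg for 90 min, was quantified by TMTpro 16plex LC-MS/MS with equalised channel sums.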

Amino acid sequences for entries named in this document (tags omitted). A change or cut given only in a name is not applied to a line headed by its entry.
UniProt Q93034, whole entry, looked up: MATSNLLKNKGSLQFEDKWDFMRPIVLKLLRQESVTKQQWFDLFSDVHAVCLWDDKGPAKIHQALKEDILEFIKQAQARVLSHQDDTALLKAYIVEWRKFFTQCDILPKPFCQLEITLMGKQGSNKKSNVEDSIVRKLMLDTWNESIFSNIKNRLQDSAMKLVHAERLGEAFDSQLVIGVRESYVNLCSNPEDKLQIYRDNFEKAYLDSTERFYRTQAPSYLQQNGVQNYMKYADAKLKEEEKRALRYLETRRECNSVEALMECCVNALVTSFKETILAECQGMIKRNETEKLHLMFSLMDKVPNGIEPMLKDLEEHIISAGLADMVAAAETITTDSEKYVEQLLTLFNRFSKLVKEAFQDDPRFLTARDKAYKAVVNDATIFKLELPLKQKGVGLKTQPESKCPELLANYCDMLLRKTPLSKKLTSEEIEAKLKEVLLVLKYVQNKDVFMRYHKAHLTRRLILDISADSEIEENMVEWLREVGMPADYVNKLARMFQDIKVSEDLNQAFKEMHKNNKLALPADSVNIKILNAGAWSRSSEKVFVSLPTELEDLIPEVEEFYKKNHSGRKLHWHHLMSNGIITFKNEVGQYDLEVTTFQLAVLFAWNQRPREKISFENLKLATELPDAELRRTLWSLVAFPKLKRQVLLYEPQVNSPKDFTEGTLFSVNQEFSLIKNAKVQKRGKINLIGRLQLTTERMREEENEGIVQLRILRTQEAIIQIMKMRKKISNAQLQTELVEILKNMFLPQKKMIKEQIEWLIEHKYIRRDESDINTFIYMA
UniProt Q14118: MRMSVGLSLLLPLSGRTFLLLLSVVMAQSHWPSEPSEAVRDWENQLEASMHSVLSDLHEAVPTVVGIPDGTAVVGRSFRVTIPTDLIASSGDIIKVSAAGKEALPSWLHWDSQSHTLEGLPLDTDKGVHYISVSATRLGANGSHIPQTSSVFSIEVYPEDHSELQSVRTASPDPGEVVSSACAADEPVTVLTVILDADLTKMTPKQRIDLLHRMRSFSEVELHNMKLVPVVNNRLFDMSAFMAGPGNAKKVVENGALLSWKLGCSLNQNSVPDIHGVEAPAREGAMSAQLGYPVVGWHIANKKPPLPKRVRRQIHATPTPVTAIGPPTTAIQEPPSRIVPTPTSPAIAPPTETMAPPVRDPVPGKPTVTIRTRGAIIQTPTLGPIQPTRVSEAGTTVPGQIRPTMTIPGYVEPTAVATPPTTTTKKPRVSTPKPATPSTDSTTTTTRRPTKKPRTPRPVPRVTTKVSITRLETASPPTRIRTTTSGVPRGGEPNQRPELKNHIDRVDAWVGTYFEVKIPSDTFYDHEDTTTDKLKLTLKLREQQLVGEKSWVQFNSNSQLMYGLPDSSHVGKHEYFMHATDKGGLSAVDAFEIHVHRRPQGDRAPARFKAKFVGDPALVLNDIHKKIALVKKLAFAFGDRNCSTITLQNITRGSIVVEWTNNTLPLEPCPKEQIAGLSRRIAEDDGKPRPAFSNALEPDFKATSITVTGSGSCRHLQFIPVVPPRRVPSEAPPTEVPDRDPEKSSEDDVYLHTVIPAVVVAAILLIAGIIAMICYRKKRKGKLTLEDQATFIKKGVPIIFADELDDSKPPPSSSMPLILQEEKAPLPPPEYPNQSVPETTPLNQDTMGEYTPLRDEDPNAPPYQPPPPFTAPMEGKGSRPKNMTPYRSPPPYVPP
UniProt Q5QP82: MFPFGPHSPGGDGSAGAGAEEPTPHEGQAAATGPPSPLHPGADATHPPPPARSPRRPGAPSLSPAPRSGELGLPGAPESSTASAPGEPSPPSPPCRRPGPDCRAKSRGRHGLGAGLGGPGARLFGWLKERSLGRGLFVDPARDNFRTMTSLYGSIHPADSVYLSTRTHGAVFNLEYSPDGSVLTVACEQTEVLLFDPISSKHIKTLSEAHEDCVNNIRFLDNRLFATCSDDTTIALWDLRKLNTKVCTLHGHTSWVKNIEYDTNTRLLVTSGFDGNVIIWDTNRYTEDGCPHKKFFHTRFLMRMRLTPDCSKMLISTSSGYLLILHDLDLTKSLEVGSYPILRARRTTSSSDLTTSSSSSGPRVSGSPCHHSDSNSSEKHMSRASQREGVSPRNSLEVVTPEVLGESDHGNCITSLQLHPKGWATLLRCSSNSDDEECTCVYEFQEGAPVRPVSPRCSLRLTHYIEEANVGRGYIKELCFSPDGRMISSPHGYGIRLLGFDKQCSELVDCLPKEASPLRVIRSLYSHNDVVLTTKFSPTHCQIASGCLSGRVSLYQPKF
UniProt Q9H773: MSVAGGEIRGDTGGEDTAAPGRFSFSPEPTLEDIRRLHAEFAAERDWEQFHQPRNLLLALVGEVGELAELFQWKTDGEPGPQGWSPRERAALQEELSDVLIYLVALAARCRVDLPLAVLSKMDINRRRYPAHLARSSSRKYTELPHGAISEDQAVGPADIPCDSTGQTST
UniProt Q8TEB1, whole entry, looked up: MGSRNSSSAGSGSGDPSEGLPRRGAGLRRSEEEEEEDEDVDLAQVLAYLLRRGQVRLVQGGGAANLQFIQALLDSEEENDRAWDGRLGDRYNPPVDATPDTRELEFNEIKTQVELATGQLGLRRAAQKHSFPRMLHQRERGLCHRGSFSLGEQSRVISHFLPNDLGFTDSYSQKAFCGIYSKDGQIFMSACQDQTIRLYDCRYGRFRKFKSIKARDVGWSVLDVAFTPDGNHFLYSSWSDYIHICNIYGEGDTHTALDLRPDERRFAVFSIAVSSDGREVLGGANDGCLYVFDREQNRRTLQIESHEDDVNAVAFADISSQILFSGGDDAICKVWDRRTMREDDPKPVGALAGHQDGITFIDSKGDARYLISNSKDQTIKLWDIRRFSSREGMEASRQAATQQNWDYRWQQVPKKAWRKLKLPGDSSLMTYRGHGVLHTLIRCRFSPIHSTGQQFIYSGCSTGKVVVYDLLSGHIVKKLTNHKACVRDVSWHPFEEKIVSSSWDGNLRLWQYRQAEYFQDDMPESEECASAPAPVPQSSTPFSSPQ
UniProt P27707: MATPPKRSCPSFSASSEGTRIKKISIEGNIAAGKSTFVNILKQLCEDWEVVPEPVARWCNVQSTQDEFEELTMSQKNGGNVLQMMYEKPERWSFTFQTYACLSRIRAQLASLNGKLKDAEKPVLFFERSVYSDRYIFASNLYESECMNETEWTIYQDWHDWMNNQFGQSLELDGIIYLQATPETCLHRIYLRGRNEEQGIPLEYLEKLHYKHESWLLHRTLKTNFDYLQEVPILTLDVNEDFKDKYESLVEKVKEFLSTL
UniProt Q6UW02: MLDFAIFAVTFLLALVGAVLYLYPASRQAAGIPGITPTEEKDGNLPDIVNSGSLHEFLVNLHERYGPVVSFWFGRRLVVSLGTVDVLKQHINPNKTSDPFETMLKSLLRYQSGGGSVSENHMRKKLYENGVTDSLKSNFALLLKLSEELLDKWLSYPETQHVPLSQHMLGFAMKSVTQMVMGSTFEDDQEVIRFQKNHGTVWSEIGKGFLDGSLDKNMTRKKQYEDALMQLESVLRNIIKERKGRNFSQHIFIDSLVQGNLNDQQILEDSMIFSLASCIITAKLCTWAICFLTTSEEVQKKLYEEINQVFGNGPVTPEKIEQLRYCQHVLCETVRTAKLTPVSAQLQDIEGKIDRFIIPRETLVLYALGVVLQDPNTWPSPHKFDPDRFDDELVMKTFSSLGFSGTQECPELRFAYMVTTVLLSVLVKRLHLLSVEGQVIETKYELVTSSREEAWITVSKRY
UniProt P21291: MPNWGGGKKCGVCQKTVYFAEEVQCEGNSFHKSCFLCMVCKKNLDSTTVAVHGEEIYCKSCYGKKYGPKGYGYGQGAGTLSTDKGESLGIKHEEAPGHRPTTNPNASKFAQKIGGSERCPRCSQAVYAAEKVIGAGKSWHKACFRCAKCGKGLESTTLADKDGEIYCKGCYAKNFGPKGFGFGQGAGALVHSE

[2] = compound: Cc1cccc(CC(=O)N2CCc3c2ccc(-c2cn(C)c4ncnc(N)c24)c3F)n1
How it was run: as §1

[3] = compound: Cc1cn(-c2cc(NC(=O)c3ccc(C)c(Nc4nccc(-c5cccnc5)n4)c3)cc(C(F)(F)F)c2)cn1 [nilotinib]
How it was run: as §1

[4] = compound: Cc1nc(Nc2n[nH]c3c2CN(C(=O)N[C@H](CN(C)C)c2ccccc2)C3(C)C)c2sccc2n1
How it was run: as §1

[5] = compound: Cc1nc(Nc2ncc(C(=O)Nc3c(C)cccc3Cl)s2)cc(N2CCN(CCO)CC2)n1 [dasatinib]
How it was run: as §1

[6] = compound: Cc1ncc(-c2ccnc(Nc3ccc(S(C)(=O)=O)cc3)n2)n1C(C)C
How it was run: as §1

[7] = compound: Cn1cc(-c2ccc3c(c2)CCN3C(=O)Cc2cccc(C(F)(F)F)c2)c2c(N)ncnc21
How it was run: as §1

[8] = compound: Cn1cc(-c2ccc3nnc(C(F)(F)c4ccc5ncccc5c4)n3n2)cn1
How it was run: as §1

[9] = compound: Cn1cncc1[C@@](N)(c1ccc(Cl)cc1)c1ccc2c(c1)c(-c1cccc(Cl)c1)cc(=O)n2C [tipifarnib]
How it was run: as §1

[10] = compound: FC(F)(F)c1ccc(/C=C/c2nc(COc3ccc(CCCCn4ccnn4)cc3)co2)cc1 [mubritinib]
How it was run: as §1

[11] = compound: NC(=O)Nc1cc(-c2cccc(F)c2)sc1C(=O)N[C@H]1CCCNC1
How it was run: as §1

[12] = compound: NC(=O)c1cnc(N[C@@H]2CCCC[C@@H]2N)nc1Nc1cccc(-n2nccn2)c1
How it was run: as §1

[13] = compound: NC1(c2ccc(-c3nc4ccn5c(=O)[nH]nc5c4cc3-c3ccccc3)cc2)CCC1
How it was run: as §1

[14] = compound: NCC(=O)Nc1ccc(-n2nc(C(F)(F)F)cc2-c2ccc3c(ccc4ccccc43)c2)cc1
How it was run: as §1

[15] = compound: Nc1ccccc1NC(=O)c1ccc(CNC(=O)OCc2cccnc2)cc1 [entinostat]
How it was run: as §1

[16] = compound: O=C(CCCCCCC(=O)Nc1ccccc1)NO [vorinostat]
How it was run: as §1

[17] = compound: O=C(CCCCCCNC(=O)c1cnc(N(c2ccccc2)c2ccccc2Cl)nc1)NO [citarinostat]
How it was run: as §1

[18] = compound: O=C(O)c1ccc2c(c1)nc(Nc1cccc(Cl)c1)c1ccncc12 [silmitasertib]
How it was run: as §1

[19] = compound: O=C1NC(=O)C(c2cnc3ccccn23)=C1c1cn2c3c(cc(F)cc13)CN(C(=O)N1CCCCC1)CC2
How it was run: as §1

[20] = compound: c1cc(OCCN2CCCCC2)cc(-c2n[nH]c3ccc(-c4nnc[nH]4)cc23)c1
How it was run: as §1

Target | log2 fold change [1] | log2 fold change [2] | log2 fold change [3] | log2 fold change [4] | log2 fold change [5] | log2 fold change [6] | log2 fold change [7] | log2 fold change [8] | log2 fold change [9] | log2 fold change [10] | log2 fold change [11] | log2 fold change [12] | log2 fold change [13] | log2 fold change [14] | log2 fold change [15] | log2 fold change [16] | log2 fold change [17] | log2 fold change [18] | log2 fold change [19] | log2 fold change [20]
CUL5 (UniProt Q93034) | inactive: -0.032 | inactive: -0.003 | inactive: -0.009 | inactive: -0.006 | inactive: 0.028 | inactive: 0.012 | inactive: 0.044 | inactive: 0.031 | inactive: -0.02 | inactive: 0.033 | inactive: 0.035 | inactive: -0.031 | inactive: -0.043 | inactive: -0.001 | inactive: -0.018 | inactive: -0.001 | inactive: 0.041 | inactive: -0.011 | inactive: -0.016 | inactive: -0.016
DAG1 (UniProt Q14118) | inactive: 0.03 | inactive: -0.076 | inactive: 0.085 | inactive: 0.003 | inactive: 0.025 | inactive: -0.008 | inactive: -0.001 | inactive: 0.073 | inactive: 0.035 | inactive: 0.05 | inactive: -0.035 | inactive: 0.123 | inactive: 0.081 | inactive: -0.054 | inactive: -0.013 | inactive: 0.023 | inactive: -0.015 | inactive: -0.005 | inactive: -0.015 | inactive: -0.001
DCAF10 (UniProt Q5QP82) | inactive: -0.002 | inactive: -0.069 | inactive: -0.052 | inactive: 0.041 | inactive: 0.026 | inactive: -0.047 | inactive: 0.012 | inactive: 0.007 | inactive: -0.054 | inactive: -0.002 | inactive: -0.018 | inactive: -0.02 | inactive: 0.026 | inactive: 0.033 | inactive: -0.021 | inactive: -0.015 | inactive: 0.08 | inactive: 0.122 | inactive: -0.028 | active: 0.357
DCTPP1 (UniProt Q9H773) | inactive: -0.053 | inactive: 0.105 | inactive: 0.008 | inactive: -0.013 | inactive: 0.068 | inactive: -0.025 | inactive: 0.073 | inactive: 0.029 | inactive: 0.074 | inactive: 0.047 | inactive: -0.051 | inactive: 0.117 | inactive: -0.014 | inactive: 0.028 | inactive: 0.062 | inactive: -0.093 | inactive: 0.005 | inactive: -0.003 | inactive: -0.001 | inactive: 0.008
DCAF11 (UniProt Q8TEB1) | inactive: -0.018 | inactive: -0.017 | inactive: 0.011 | inactive: 0.036 | inactive: -0.002 | inactive: 0.027 | inactive: 0.021 | inactive: 0.085 | inactive: 0.013 | inactive: 0.053 | inactive: -0.059 | inactive: -0.043 | inactive: -0.057 | inactive: 0 | inactive: 0.017 | inactive: -0.035 | inactive: 0.054 | inactive: 0.001 | inactive: -0.013 | inactive: -0.096
DCK (UniProt P27707) | inactive: -0.108 | inactive: -0.013 | inactive: -0.039 | inactive: 0.175 | inactive: 0.014 | inactive: 0.021 | inactive: 0.026 | inactive: 0.006 | inactive: -0.04 | inactive: 0.036 | inactive: -0.017 | inactive: 0.003 | inactive: 0.002 | inactive: 0.097 | inactive: 0 | inactive: -0.082 | inactive: 0.02 | inactive: -0.023 | inactive: 0.019 | inactive: 0.146
CYP20A1 (UniProt Q6UW02) | inactive: 0.004 | inactive: -0.041 | inactive: -0.042 | inactive: -0.046 | inactive: -0.081 | inactive: 0.01 | inactive: 0.033 | inactive: -0.039 | inactive: 0.013 | inactive: 0.029 | inactive: -0.034 | inactive: -0.052 | inactive: -0.102 | inactive: -0.039 | inactive: -0.022 | inactive: 0.03 | inactive: 0.063 | inactive: -0.001 | inactive: -0.017 | inactive: -0.052
CSRP1 (UniProt P21291) | inactive: -0.001 | inactive: 0.013 | inactive: 0.007 | inactive: -0.014 | inactive: 0.105 | inactive: 0.008 | inactive: 0.044 | inactive: -0.007 | inactive: 0.011 | inactive: 0.016 | inactive: -0.012 | inactive: -0.018 | inactive: 0.022 | inactive: 0 | inactive: -0.016 | inactive: -0.026 | inactive: 0.021 | inactive: -0.041 | inactive: 0.008 | inactive: -0.001

From the supplement of paper PMC10849652
